Results reported in PMC9998502, “Functional selectivity of EM-2 analogs at the mu-opioid receptor” (Frontiers in Pharmacology, 2023).
These are yes or no findings as the source states them, for the method shown. Binding seen in cells or lysates may run through a third protein. Some results given as binding are weak or reduced against the parent protein; the word gives no strength.

Chains of the proteins cited; added tags and fusions are not shown.
UniProt P35372: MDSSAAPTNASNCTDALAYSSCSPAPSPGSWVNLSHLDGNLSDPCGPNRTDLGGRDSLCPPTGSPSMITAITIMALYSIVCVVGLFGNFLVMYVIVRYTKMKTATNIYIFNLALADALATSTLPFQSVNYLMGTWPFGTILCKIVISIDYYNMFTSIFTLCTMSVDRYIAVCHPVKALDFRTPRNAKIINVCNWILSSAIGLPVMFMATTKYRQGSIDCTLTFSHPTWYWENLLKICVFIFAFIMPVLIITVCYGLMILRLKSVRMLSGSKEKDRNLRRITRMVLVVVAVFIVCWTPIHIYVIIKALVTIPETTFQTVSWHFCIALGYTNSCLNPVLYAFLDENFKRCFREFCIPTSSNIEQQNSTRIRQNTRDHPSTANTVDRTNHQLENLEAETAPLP
UniProt P32121: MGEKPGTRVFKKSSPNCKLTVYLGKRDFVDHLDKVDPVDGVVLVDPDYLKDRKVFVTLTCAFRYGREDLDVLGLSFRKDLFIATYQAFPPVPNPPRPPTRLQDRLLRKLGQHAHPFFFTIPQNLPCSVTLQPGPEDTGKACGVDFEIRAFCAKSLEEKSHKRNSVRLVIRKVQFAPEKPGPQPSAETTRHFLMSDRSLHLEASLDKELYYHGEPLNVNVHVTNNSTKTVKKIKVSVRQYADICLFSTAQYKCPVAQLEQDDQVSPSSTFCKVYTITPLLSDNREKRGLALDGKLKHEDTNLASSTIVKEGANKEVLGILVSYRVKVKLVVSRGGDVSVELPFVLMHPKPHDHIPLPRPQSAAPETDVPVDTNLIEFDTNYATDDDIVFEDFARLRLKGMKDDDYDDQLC

Biological target: RLuc-tethered human mu receptor fusion protein (human) (UniProt P35372)
Test: FRET or BRET; living SH-SY5Y cells stably co-expressing mu-RLuc and β-arrestin 2-RGFP, PBS with 0.5 mM MgCl2 and 0.9 mM CaCl2, 2 μM Prolume Purple Coelenterazine; agonist peptide added 5 min before reading; BRET ratio after vehicle subtraction

Substance: human β-arrestin 2 N-terminal-tagged with RGFP (from UniProt P32121 1-409)
- binding: binds
